Data as given in article PMC7171161.
Results are given in words; binding and its absence hold for the method and conditions named. In cells and extracts the contact can be indirect.

The chains behind the UniProt entries cited, without tags or fusion partners. Where a name states a change or a piece, a line headed by the entry shows the natural chain unless it says otherwise.
UniProt Q8N103: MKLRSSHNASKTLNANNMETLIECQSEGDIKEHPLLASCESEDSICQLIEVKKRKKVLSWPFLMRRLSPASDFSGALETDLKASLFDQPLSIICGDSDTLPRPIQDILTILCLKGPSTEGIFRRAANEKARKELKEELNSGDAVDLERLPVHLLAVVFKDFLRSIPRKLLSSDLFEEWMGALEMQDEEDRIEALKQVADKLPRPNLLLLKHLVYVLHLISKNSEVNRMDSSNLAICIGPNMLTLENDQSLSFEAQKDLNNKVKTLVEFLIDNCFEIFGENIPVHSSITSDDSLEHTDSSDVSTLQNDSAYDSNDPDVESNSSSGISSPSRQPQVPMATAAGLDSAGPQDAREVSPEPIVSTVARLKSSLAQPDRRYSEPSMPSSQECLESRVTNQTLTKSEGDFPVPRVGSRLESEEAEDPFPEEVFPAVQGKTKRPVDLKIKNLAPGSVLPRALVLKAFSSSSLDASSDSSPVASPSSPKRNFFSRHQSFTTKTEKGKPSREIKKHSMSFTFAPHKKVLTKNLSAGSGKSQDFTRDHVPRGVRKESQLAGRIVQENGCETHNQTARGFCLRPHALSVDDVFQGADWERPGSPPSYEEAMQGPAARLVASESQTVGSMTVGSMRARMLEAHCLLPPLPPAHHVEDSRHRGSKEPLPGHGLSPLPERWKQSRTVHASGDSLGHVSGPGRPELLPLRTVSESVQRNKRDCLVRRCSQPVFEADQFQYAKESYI

Experiments:
Dectin-1 = molecular target: T1, Dectin-1 (UniProt Q9BXN2); experiment: co-IP; HEK293T cells transfected with the indicated plasmids; lysis in 0.5% Triton X-100, 20 mM Hepes pH 7.4, 150 mM NaCl; immunoprecipitation with anti-Flag or anti-HA, 4 degrees overnight, immunoblot; for TAGAP with Dectin-1/-2/-3 also in EPHB2-knocked down 293 T cells; for Dectin-1 with EPHB2 also with co-expressed wild-type or K402R Syk
T1 sequence: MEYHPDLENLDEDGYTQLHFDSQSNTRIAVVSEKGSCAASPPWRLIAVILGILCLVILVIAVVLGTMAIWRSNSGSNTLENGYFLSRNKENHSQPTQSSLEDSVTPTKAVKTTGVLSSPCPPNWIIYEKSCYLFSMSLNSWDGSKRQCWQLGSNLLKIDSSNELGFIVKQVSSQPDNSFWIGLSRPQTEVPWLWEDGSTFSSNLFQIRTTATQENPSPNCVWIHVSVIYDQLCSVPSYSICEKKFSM

Dectin-2 = molecular target: T2, Dectin-2 (UniProt Q6EIG7); experiment: as above
T2 sequence: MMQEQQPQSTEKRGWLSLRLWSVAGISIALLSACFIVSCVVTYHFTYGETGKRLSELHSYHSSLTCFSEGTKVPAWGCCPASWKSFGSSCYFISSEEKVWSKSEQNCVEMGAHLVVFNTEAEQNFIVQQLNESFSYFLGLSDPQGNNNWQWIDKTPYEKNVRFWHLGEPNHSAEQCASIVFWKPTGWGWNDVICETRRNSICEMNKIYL

binding (Dectin-1): no binding
binding (Dectin-2): no binding
Substance: TAGAPΔGAP (GAP domain deletion mutant of TAGAP) (from UniProt Q8N103)
